# Results published in article PMC9889334.
# Assays:
# [1] = biological target: T1, PaPcc1 with C-terminal hexa-histidine tag (Pyrococcus abyssi Pcc1) (Pyrococcus abyssi) (UniProt Q9V1Z9); assay: co-purification (Ni-NTA affinity chromatography, then size exclusion chromatography); E. coli cells expressing untagged subunits and His6-tagged PaPcc1 or PaPcc2 mixed and lysed together; lysate heated at 65 °C; captured by the His6 tag on Ni-NTA at room temperature (20 mM Tris-HCl pH 8, 500 mM NaCl, 5 mM ß-mercaptoethanol, 10% glycerol), then SEC
# T1 sequence: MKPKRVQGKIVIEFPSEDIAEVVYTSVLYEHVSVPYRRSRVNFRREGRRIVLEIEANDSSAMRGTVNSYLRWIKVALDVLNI
# [2] = biological target: T1, PaPcc1 with C-terminal hexa-histidine tag (Pyrococcus abyssi Pcc1) (Pyrococcus abyssi); assay: crystal structure; PaPcc1-PaPcc2 at 7.9 mg/mL; 15% PEG 6K, 5% glycerol, 18 °C; 3.18 Å; both purified
binding [1],binding [2],Substance
binds,–,PaBud32 (Pyrococcus abyssi Bud32) (enzyme)
binds,–,PaCgi121 (Pyrococcus abyssi Cgi121)
binds,binds,PaPcc2 with C-terminal Strep-tag (Pyrococcus abyssi Pcc2)

# These are yes or no findings as the source states them, for the method shown. A result given as binding can be weak or reduced; the word gives no strength. Where a sequence is shown, tags or fusion partners need not be part of it. For some of these results: Binding seen in cells or lysates may run through a third protein.
